Assay [1] addresses T1, Mto1/2[bonsai]^GST-Mto1[bonsai] (S. pombe) (UniProt O94488+Q9USP7).
T1 sequence 1: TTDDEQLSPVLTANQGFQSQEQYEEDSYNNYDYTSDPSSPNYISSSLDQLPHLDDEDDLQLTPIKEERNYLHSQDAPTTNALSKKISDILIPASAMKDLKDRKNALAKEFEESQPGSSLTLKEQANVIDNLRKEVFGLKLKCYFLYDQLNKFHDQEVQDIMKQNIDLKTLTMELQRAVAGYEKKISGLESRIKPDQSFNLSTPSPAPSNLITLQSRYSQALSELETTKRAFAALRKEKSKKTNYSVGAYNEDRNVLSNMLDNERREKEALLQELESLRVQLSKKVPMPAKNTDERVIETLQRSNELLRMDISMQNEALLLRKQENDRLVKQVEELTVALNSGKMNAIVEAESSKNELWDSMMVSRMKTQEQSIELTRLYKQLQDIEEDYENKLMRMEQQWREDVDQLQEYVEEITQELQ
T1 sequence 2: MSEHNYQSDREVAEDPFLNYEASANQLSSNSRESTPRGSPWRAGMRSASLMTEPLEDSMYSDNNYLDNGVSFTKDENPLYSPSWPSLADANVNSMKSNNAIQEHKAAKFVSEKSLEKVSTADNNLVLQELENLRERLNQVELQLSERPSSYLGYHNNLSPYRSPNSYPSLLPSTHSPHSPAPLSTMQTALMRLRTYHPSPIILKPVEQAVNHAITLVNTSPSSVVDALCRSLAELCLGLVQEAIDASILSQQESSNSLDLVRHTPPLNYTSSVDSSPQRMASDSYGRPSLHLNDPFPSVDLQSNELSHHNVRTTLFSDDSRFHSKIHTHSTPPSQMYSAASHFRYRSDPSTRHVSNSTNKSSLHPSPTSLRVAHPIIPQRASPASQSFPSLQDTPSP
The experiment in a line: pull-down; glutathione agarose purification from High Five cells coexpressing GST-Mto1[bonsai], Mto2, untagged γ-TuSC and Mzt1; HB100, overnight 4°C; SDS-PAGE and western blot. For orientation: Immunoblotting shows a protein as a band on a membrane.

The target of assay [2] is T1, Mto1/2[bonsai]^GST-Mto1[bonsai] (S. pombe). The experiment in a line: pull-down; glutathione agarose purification from High Five cells coexpressing GST-Mto1[bonsai], Mto2 and untagged γ-TuSC in the absence of Mzt1; HB100, overnight 4°C; SDS-PAGE and western blot.
The target in assay [3] is T2, Mto1/2[bonsai]^Strep-Mto1[bonsai] (S. pombe) (UniProt O94488+Q9USP7).
T2 sequence 1: T1 sequence 1
T2 sequence 2: T1 sequence 2
The experiment in a line: pull-down; Strep-Tactin Sepharose purification from High Five cells coexpressing Strep-Mto1/2[bonsai] and untagged γ-TuSC in the absence of Mzt1; overnight 4°C; SDS-PAGE and western blot.

For assay [4], the target named is T2, Mto1/2[bonsai]^Strep-Mto1[bonsai] (S. pombe). The experiment in a line: pull-down; Strep-Tactin Sepharose purification from High Five cells coexpressing Strep-Mto1/2[bonsai], untagged γ-TuSC and Mzt1; overnight 4°C; SDS-PAGE and western blot.
For assay [5], the target named is T3, Mto1[bonsai]-mECitrine (S. pombe) (UniProt O94488).
T3 sequence: T1 sequence 1
The experiment in a line: co-IP; anti-GFP antibody on Protein G Dynabeads precipitates Mto1[bonsai]-mECitrine from S. pombe lysates (control strain KS10055 and nmt81:3xFLAG-mzt1 strain KS10059, without or with 20 μM thiamine for 16 hr); IP buffer 50 mM Tris-HCl pH 7.5, 150 mM NaCl, 0.2% Triton X-100; western blot.

These are yes or no findings as the source states them, for the method shown. In cells and extracts the contact can be indirect. Some results given as binding are weak or reduced against the parent protein; the word gives no strength. For some of these results: Tags and fused reporters may be left off the sequences shown.

B1: Alp6 (untagged) (protein, UniProt Q9USQ2 1-832)
chain: MSEIHVKTALSRLADKYLQNSKNPSVPYTIETIVSFFQEIIHSISPDTFQLDIDDILYKIYSKIPPEENNDALFSKLSNLVSRLKSQTVIHNKSQILYFLYLLSPISQSSRDVSSHLLDESISNPINIPSTEVESSNFGQTRYDQVPENPQITDWDEGLENESSISIAHDSSRLNRSTETSSVQHTLITEADLLSSISYVLQGISTEYVQFKNELALLSKRIPVQYLLQMRALSETGLLYQELKVFSNYDPSVSQSIDGDNVSKAFINDQSLALQSLKSVISKELTNFLALIASLDSQIRADASLEKPMVTIRRCIAWTQVAKLKLRILSSVVNDNMNQENKKRLIQVVSKYNVHGDPLIQELSDKILTEITGPLYEMIENWIYKGELVDPYQEFFVKEKNGSESHDHQGQGDVVWKGKYFLDKELIPSFLSEELVDKIFLIGKSLNFARYGCGDFDWAQEHYQKLVKKLSYRDPHSLETVVDKAYTESINHLVYLMEEVFHLTDHLKAIKKYLLLGQGDFVDLLMESLGNSLDQPANTLFRHNLTASLESAIRSSNASYEPEYVLKRLDARLLELSHGETGWDVFTLEYKVDSPINVIITPYCSRQYLKIFNFLWRLKRIEFALAHSWRRVNLGERNVFRNLDYTKFEWHFVSCHLAEMIHFVCQLQYYILFEVIEISWQELQLAMEKPNATLDTYIEAHEKYVTSITHKGLLGGGKSRNEDSFLHQLHDILKVILNFHDAIELLYNFSCSLSNRIRINVPISTDALAAQYTPIKNELSNFTEEFQVRLQKLLHGLASHKDPEMRFLSVRLNYNEFYVSHRRRHDKDVTSQ
In the case of B1, the binding entry in assay [1], in assay [2], in assay [3] and in assay [4] was “binds” each time.

B2: Alp6 (endogenous, S. pombe) (protein, UniProt Q9USQ2 1-832)
chain: B1 chain
Regarding B2, the binding entry in assay [5] was “binds”.

B3: γ-tubulin (Gtb1), untagged (natural protein, S. pombe, UniProt P25295 1-446, looked up)
chain: MGREIITLQAGQCGNQIGSQFWQQLCLEHGIGPDGTLESFATEGVDRKDVFFYQSDDTRYIPRAILIDLEPRVVNNILSDTYGSLYNPENILITKNGGGAGNNWANGYSHAERIFEDIMDMIDREADGSDSLEGFSLLHSIAGGTGSGLGSFLLERLNDRYPKKIIQTYSVFPNSQSVSDVVVQPYNSLLALKRLTLNADSVVVLDNAALAHIAADRLHTQNPTFHQQNQLVSTVMSASTTTLRYPGYMNNDLVSIIASLIPSPRCHFLLTSYTPFTNQQVEEAKAIRKTTVLDVMRRLLLPKNQMVSVNPSKKSCFISILDIIQGEADPADVHKSLLRIRERRYASFIPWGPASIQVALSKKSPYIKTNHRVSGLMLANHTSIASLFKRTLDQYDRLRKRNAFLEQYKKEAIFEDDLNEFDSSRDVVADLINEYEACEDPNYLSL
notes: γ-tubulin Gtb1 of S. pombe; source: High Five insect cells (MultiBac baculovirus), coexpressed with partners; in lysate, and co-purified in complexes
Take B3: the binding result in assay [1] and in assay [4] was “binds” each time.

B4: γ-tubulin (endogenous, S. pombe) (protein, UniProt P25295 1-446)
chain: B3 chain
Consider B4, for which, in assay [5], the binding entry is given as “binds”.

B5: Alp4 (untagged) (natural protein, S. pombe, UniProt Q9Y705 1-784, looked up)
chain: MVRSISSVLAKEESENGSPIPALEEGSVYHVSLKSEGVSPFSDRIQLNYLYDGKTFSDPSNLNIHQQEACLINELLNAFMGMEGVFVHLQDMKASSEFETIIMPPSFYILPGFDLGIKDIASEMLEMGSHYLSITAFIESRSHFEYGFVNHALCAALRKFVMDYVVLIMQCENQSRIDPNFSLQTLRLYTLPTSRSLRQVYLILRDLLLSMEKNASSSDDLGLSNIDDLLEQLNEGNDISHVVNATRSKKKVCKGGQVISFLTESLTKYAGDPVARKILTYLLREASRPYTKMLNEWIHLGLVNDPYDEFMIKIHKGITSMQLDEDYTDEYWEKRYVIREDQVPPQLLDLQNKVLFAGKYLNVVLECRKGVNNLASLNAKDDTQNQLLWPSTFDDDNFTLNIMNAYVYANESLLQLLQSSQSLYAHLYSLKHYFFLDQSDFFTTFLDNAQHELRKPAKYISITKLQSQLDLALRQPGTITATDPHKEYVTVEVNQTSLIDWLMHIVSISGLEEGTSSQGNEVWNESITKQADVGNETRNFESEHNRSTQGTSKVGSDKDINGFETMQLCYKVPFPLSLILSRKAIIRYQLLFRYFLLLRHVEMQLENSWVQHSKNSAWRLNSSNAKIEQWKRNSWLLRTRMLSFVQKIIYYTTSEVIETHWGKFMGELENARTVDNLMQEHIDFLDTCLKECMLTNSRLLKVQSKLLNTCAMFASYTSTFTRSLYLLENSEESFDEGRMDKMEEILRRYEDSFSRHLKSLVNACNYFASTETAALLSLVMKLTG
notes: Alp4, S. pombe γ-TuSC protein, homolog of human GCP2; also called homolog of human GCP2; source: High Five insect cells (MultiBac baculovirus), coexpressed with partners; in lysate, and co-purified in complexes
In the case of B5, the binding result in assay [1], in assay [2], in assay [3] and in assay [4] was “binds” throughout.

B6: Alp4 (endogenous, S. pombe) (protein, UniProt Q9Y705 1-784)
chain: B5 chain
On to B6, for which the binding entry in assay [5] is “binds”.

(Values after paper PMC6616311, “Reconstitution of Microtubule Nucleation In Vitro Reveals Novel Roles for Mzt1” (Current Biology, 2019).)
